# This is one part of the list. The main result of the screen is listed elsewhere. These columns were measured beside it and carry no call. Compounds called inactive in the main read-out are mostly missing here. The note in brackets gives the kind of curve behind each potency; many fits are weak.
# Test: qHTS Assay for Lipid Storage Modulators in Drosophila S3 Cells;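 as to cell number change: cells counted by Cell Tracker Red CMTPX staining in the red channel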
# Details: BODIPY lipid droplet fluorescence, 18-24 h; for cell number change: measured here: cell count max response, cells fed with added oleic acid
# In short: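 Laser-scanning cytometry quantifies lipid droplet accumulation (500–530 nm total intensity; droplet/cell object ratio) in oleic acid-fed (400 uM added) Drosophila S3 cells treated with a concentration series. 20 uM Triacsin C defined 100% inhibition.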
# [1] = measured here: lipid fluorescence (Fed channel) AC50, cells fed with added oleic acid
# [2] = measured here: cell number channel AC50, cells fed with added oleic acid
smiles,measurement,setting,value
CCOC(=O)c1[nH]c2ccc(OC)cc2c1NC(=O)CCN1CCc2ccccc2C1,cell number change,,-8.96%
same,AC50,[1],"0.259 µM [rising, full curve]"
Cc1nn(Cc2ccccc2)c(Cl)c1C(=O)NCc1ccc(C)n1C,cell number change,,18.6%
same,AC50,[1],"6.51 µM [rising, full curve, poor fit]"
N#Cc1c[nH]n2c(=O)cc(Cc3ccccc3)nc12,cell number change,,-18.6%
same,AC50,[1],"29.1 µM [falling, single point]"
COc1ccccc1NC(=O)Cc1nnc(SCC(=O)c2ccc(F)cc2)n1C,cell number change,,14.3%
CC1CC(=O)c2cnc(N3CCOCC3)nc2C1 (stereo not drawn),cell number change,,49.2%
same,AC50,[2],"14.6 µM [rising, partial curve, poor fit]"
Cn1cnnc1Sc1cc(N2CCN(S(=O)(=O)c3ccccc3)CC2)ccc1[N+](=O)[O-],AC50,[1],"25.9 µM [rising, partial curve]"
O=C(c1ccc(-c2nc3ccccc3s2)o1)N1CCN(c2ccccc2O)CC1,cell number change,,-37.2%
same,AC50,[2],"32.6 µM [falling, single point]"
same,AC50,[1],"11.6 µM [falling, partial curve]"
CC1(C)CC(=O)c2cc(C(=O)N3CCCC(C)(C)C3)c(=O)n(-c3ccccc3)c2C1,cell number change,,-21.2%
same,AC50,[1],"3.26 µM [falling, full curve, poor fit]"
CCN(CC(=O)NCc1ccc(Cl)cc1)C(=O)CCC(=O)c1ccc(F)cc1,cell number change,,21.6%
same,AC50,[1],"32.6 µM [rising, single point]"
CCOC(=O)CNC(=O)c1sc(NC(=O)c2cccc(F)c2)nc1C,cell number change,,82.8%
same,AC50,[2],"29.1 µM [rising, single point]"
O=C(Nc1ccccc1Cl)c1cc(S(=O)(=O)N2CCCCC2)ccc1N1CCOCC1,cell number change,,-14.7%
CC1(c2nnc(-c3ccccc3)o2)CC(c2cccc(Cl)c2)=NO1 (stereo not drawn),AC50,[1],"4.11 µM [rising, single point]"
Clc1ccc(-n2ncc3c(NCc4cccnc4)ncnc32)cc1Cl,AC50,[1],"3.26 µM [falling, full curve]"
O=C(O)C1CCCCC1C(=O)NC1CCCCC1 (stereo not drawn),cell number change,,-12.3%
same,AC50,[1],"4.11 µM [falling, partial curve, poor fit]"
COc1cccc(CNc2ccc(F)c(Cl)c2)c1,cell number change,,-18.2%
same,AC50,[2],"1.03 µM [falling, full curve]"
same,AC50,[1],"3.66 µM [falling, full curve]"
CC#C[C@@H](CC)c1ccc2ccn(C)c2c1,cell number change,,-37.6%
same,AC50,[2],"23.1 µM [falling, single point]"
same,AC50,[1],"0.164 µM [rising, single point]"
COc1ccc(CC(=O)Nc2cc(C)c3c(=O)oc4ccccc4c3n2)cc1,AC50,[2],"0.116 µM [rising, full curve, poor fit]"
same,AC50,[1],"0.13 µM [rising, full curve, poor fit]"
CCOC(=O)C1CCN(C(=O)c2c(C)oc3c2C(=O)c2ccccc2C3=O)CC1,cell number change,,-28.4%
same,AC50,[1],"18.4 µM [falling, partial curve]"
O=C(Nc1ccc([N+](=O)[O-])cc1)Nc1ccc(Cl)cc1F,cell number change,,-48.9%
same,AC50,[2],"0.231 µM [falling, full curve]"
same,AC50,[1],"13 µM [falling, partial curve]"
CCN(c1ccc(OC)cc1)S(=O)(=O)c1ccc(-c2cc(C)no2)s1,cell number change,,-10.4%
same,AC50,[1],"18.4 µM [rising, single point]"
O=C(NC1C2CC3CC(C2)CC1C3)C1CCCCC1 (stereo not drawn),cell number change,,-2.46%
Cc1ccc(-c2ccc(OC(=O)c3ccc(=O)[nH]c3)c(C)c2)cc1,cell number change,,22.7%
Cc1cc2c(cc(C(=O)N3CCC(C(=O)N4CCCC4)CC3)n2Cc2c(F)cccc2Cl)o1,cell number change,,-62.3%
same,AC50,[2],"20.6 µM [falling, single point]"
same,AC50,[1],"18.4 µM [falling, single point]"
COc1ccc(C(CC(=O)NCCN2CCOCC2)NS(=O)(=O)c2ccc(C)cc2)cc1 (stereo not drawn),AC50,[1],"2.06 µM [falling, partial curve]"
O=C(COc1cccc(C(F)(F)F)c1)Nc1ccc(S(=O)(=O)N2CCCC2)cc1,cell number change,,-35.3%
same,AC50,[2],"5.8 µM [falling, single point]"
CCC(=O)Oc1ccc(C(=O)Nc2ccc3c(c2)C(=O)N(C2CCCCC2)C3=O)cc1,cell number change,,34.9%
same,AC50,[2],"32.6 µM [rising, single point]"
same,AC50,[1],"20.6 µM [rising, partial curve]"
CCc1ccc(-c2c(C)sc(NC(=O)C3CCC3)c2C#N)cc1,cell number change,,-10.1%
same,AC50,[1],"0.58 µM [falling, partial curve]"
O=C(c1ccccc1)N1CCSc2sccc2C1=O,cell number change,,13.9%
Cc1ccccc1NC(=O)Cc1nc(COC(=O)c2cc(Br)ccc2O)cs1,cell number change,,-39.2%
same,AC50,[2],"18.4 µM [falling, single point]"
same,AC50,[1],"1.64 µM [falling, partial curve]"
CCC(=O)Nc1ccc(CCC(=O)N2CCCC2)cc1,cell number change,,8.11%
CCCc1nnc(SCC(=O)Nc2ccc(OC)cc2)o1,cell number change,,10.3%
same,AC50,[1],"0.092 µM [rising, full curve, poor fit]"
c1ccc(-c2cnnc3ccccc23)cc1,cell number change,,20.3%
same,AC50,[2],"0.291 µM [rising, full curve, poor fit]"
same,AC50,[1],"18.4 µM [rising, single point]"
C/C(CC(=O)Nc1ccc(N(C)C)cc1)=N\NC(=O)c1cnccn1,cell number change,,10.4%
same,AC50,[1],"11.6 µM [rising, partial curve, poor fit]"
Cc1cc2oc(=O)cc(Cn3nnc(-c4ccc(Cl)cc4)n3)c2cc1C(C)C,cell number change,,13.6%
same,AC50,[1],"0.184 µM [rising, full curve, poor fit]"
O=C(O)c1cnc(-c2ccccc2)nc1Sc1ccc(Cl)cc1Cl,cell number change,,13.5%
c1ccc(-c2ccc(-c3ccccn3)nn2)nc1,cell number change,,-14.7%
same,AC50,[1],"0.00517 µM [falling, full curve, poor fit]"
CC(C)Cc1nnc(NC(=O)CN2C(=O)NC3(CCCC3)C2=O)s1,cell number change,,-50%
same,AC50,[2],"2.06 µM [falling, full curve, poor fit]"
Cc1cc(C(=O)N2CCN(S(=O)(=O)c3ccc(F)c(Cl)c3)CC2)c(C)o1,cell number change,,-3.13%
same,AC50,[1],"29.1 µM [falling, single point]"

# For reference, part of the list above.
smiles,measurement,setting,value
O=C(O)C1CCCCC1C(=O)NC1CCCCC1 (stereo not drawn),AC50,[1],"4.11 µM [falling, partial curve, poor fit]"
COc1cccc(CNc2ccc(F)c(Cl)c2)c1,cell number change,,-18.2%
same,AC50,[2],"1.03 µM [falling, full curve]"
same,AC50,[1],"3.66 µM [falling, full curve]"

# Source: PubChem BioAssay AID2685 (National Center for Advancing Translational Sciences (NCATS), 2010)
